Reference: paper PMC9857342
Numbering of substitutions follows the chain as printed. Results are given in words; binding and its absence hold for the method and conditions named. Binding seen in cells or lysates may run through a third protein. Some binding calls cover weakened binding; strength is not graded here. For part of these data: Tags and fused reporters may be left off the sequences shown.

Chains of the proteins cited; added tags and fusions are not shown. Residues count along the entry.
UniProt P02545, residues 1-646: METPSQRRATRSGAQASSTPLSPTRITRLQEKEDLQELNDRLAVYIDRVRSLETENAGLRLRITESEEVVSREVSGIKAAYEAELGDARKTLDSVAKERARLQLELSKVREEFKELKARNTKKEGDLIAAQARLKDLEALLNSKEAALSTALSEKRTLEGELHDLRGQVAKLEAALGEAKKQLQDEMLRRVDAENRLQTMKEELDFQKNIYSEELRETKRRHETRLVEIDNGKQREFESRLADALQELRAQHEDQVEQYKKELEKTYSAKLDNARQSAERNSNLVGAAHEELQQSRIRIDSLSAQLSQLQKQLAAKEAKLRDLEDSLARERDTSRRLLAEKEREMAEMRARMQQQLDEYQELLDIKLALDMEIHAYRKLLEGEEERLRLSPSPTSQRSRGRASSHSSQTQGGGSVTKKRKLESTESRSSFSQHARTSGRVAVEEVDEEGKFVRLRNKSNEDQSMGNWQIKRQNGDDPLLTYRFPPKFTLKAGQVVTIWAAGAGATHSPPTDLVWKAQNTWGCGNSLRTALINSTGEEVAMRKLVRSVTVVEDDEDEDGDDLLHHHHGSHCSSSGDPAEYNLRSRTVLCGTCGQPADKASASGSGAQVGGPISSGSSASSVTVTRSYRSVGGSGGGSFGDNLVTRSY

Columns and labels:
[1] = biological target: T1, LAP2α p.(Ala240Thr)-DDK (human) (UniProt P42166); assay: proximity ligation; in situ PLA between LAP2α-DDK and lamin A/C; data not shown; cells not given
T1 sequence: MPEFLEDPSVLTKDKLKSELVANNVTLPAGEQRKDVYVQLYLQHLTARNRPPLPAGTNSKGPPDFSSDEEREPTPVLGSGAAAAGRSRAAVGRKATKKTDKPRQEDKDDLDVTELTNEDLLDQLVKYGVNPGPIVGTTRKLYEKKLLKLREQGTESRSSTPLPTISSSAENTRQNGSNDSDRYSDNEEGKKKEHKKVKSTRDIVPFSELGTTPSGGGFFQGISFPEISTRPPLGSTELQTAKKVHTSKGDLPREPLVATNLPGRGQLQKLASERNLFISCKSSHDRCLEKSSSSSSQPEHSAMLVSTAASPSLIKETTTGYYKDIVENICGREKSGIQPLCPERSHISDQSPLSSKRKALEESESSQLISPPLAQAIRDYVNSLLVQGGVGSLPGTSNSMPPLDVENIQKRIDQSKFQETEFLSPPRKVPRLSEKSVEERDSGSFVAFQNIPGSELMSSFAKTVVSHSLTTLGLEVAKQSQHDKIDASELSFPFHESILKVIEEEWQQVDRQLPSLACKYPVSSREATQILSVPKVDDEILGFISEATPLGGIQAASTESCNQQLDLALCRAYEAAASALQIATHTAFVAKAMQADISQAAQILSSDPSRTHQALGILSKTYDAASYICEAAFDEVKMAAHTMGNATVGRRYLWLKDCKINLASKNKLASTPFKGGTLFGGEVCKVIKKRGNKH

[2] = biological target: T2, LAP2α WT-DDK (human LAP2α, amino acids 1-694, myc-DDK tag) (human) (UniProt P42166); assay: as above
T2 sequence: T1 sequence with T240A

[3] = biological target: T3, LAP2α p.(Arg690Cys)-DDK (human) (UniProt P42166); assay: as above
T3 sequence: T1 sequence with T240A, R690C

[4] = biological target: T1, LAP2α p.(Ala240Thr)-DDK (human); assay: proximity ligation; in situ PLA in HEK293 cells transfected with LAP2α-DDK; antibodies against DDK and endogenous HMGN5; mean nuclear PLA signal intensity on confocal images
[5] = biological target: T2, LAP2α WT-DDK (human LAP2α, amino acids 1-694, myc-DDK tag) (human); assay: as above
[6] = biological target: T3, LAP2α p.(Arg690Cys)-DDK (human); assay: as above
[7] = biological target: T4, LAP2α p.(Leu124Phe)-DDK (human) (UniProt P42166); assay: proximity ligation; in situ PLA in HEK293 cells expressing LAP2α-DDK; antibodies against DDK and endogenous BAF; mean PLA signal intensity per nucleus
T4 sequence: T1 sequence with L124F, T240A

[8] = biological target: T2, LAP2α WT-DDK (human LAP2α, amino acids 1-694, myc-DDK tag) (human); assay: as above
[9] = biological target: T4, LAP2α p.(Leu124Phe)-DDK (human); assay: proximity ligation; in situ PLA in H9C2 cells expressing LAP2α-DDK; antibodies against DDK and endogenous BAF; mean PLA signal intensity per nucleus
[10] = biological target: T2, LAP2α WT-DDK (human LAP2α, amino acids 1-694, myc-DDK tag) (human); assay: as above
[11] = biological target: T5, LAP2β WT-DDK (human LAP2β, amino acids 1-454, myc-DDK tag) (human) (UniProt P42167); assay: co-IP; HEK293 cells co-expressing LAP2β-DDK and HA-BAF; lysis in 25 mM Tris-HCl pH 7.4, 137 mM NaCl, 2.5 mM KCl, 1% Triton, sonicated; first round with mouse anti-HA and protein G plus agarose, supernatants then on anti-FLAG M2 affinity gel; 4 °C; immunoblot
T5 sequence: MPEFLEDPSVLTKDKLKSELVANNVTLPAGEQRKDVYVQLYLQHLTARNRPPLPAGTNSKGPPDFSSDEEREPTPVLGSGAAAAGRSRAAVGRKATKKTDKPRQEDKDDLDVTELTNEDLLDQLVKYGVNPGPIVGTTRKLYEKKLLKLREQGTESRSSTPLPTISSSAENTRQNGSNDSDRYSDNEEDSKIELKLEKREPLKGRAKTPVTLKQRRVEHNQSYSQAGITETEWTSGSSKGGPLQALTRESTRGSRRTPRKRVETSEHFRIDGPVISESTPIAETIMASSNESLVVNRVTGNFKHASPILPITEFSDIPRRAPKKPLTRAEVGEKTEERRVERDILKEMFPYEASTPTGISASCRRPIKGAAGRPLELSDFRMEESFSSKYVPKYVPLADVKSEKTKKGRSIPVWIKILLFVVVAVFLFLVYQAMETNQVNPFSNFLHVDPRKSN

[12] = biological target: T4, LAP2α p.(Leu124Phe)-DDK (human); assay: proximity ligation; in situ PLA in HEK293 cells co-expressing LAP2α-DDK or LAP2β-DDK and HA-BAF; antibodies against DDK and HA; mean PLA signal intensity per nucleus
[13] = biological target: T2, LAP2α WT-DDK (human LAP2α, amino acids 1-694, myc-DDK tag) (human); assay: as above
[14] = biological target: T5, LAP2β WT-DDK (human LAP2β, amino acids 1-454, myc-DDK tag) (human); assay: as above
[15] = biological target: T6, LAP2β p.(Leu124Phe)-DDK (human) (UniProt P42167); assay: as above
T6 sequence: T5 sequence with L124F

Measured: binding

lamin A/C (from UniProt P02545 1-646)
binds: [1] | [2] | [3]

B1: endogenous HMGN5 of HEK293 cells (protein, UniProt P82970 1-282)
chain: MPKRKAAGQGDMRQEPKRRSARLSAMLVPVTPEVKPKRTSSSRKMKTKSDMMEENIDTSAQAVAETKQEAVVEEDYNENAKNGEAKITEAPASEKEIVEVKEENIEDATEKGGEKKEAVAAEVKNEEEDQKEDEEDQNEEKGEAGKEDKDEKGEEDGKEDKNGNEKGEDAKEKEDGKKGEDGKGNGEDGKEKGEDEKEEEDRKETGDGKENEDGKEKGDKKEGKDVKVKEDEKEREDGKEDEGGNEEEAGKEKEDLKEEEEGKEEDEIKEDDGKKEEPQSIV
binds: [4] | [5] | [6]

B2: endogenous BAF of HEK293 cells (protein, UniProt O75531 1-89)
chain: MTTSQKHRDFVAEPMGEKPVGSLAGIGEVLGKKLEERGFDKAYVVLGQFLVLKKDEDLFREWLKDTCGANAKQSRDCFGCLREWCDAFL
binds: [7] | [8]

B3: endogenous BAF of H9C2 cells (protein, UniProt Q9R1T1 1-89)
chain: B2 chain with E28D, V29A, K33R
binds: [9] | [10]

B4: HA-BAF (barrier autointegration factor, HA-tagged) (protein, UniProt O75531 1-89)
chain: B2 chain
binds: [11] | [12] | [13] | [14] | [15]
